Assay results taken from patent US20250109127A1, “METHODS OF USE OF PHENOXYPROPYLAMINE COMPOUNDS TO TREAT DEPRESSION” (Minerva Neurosciences, Inc., priority 2013, published 2025).
Values joined by “and” are separate entries in the source; they are usually repeats but may differ in a detail not shown here. Equal entries are not always repeated. Further values from the same series stand in other lists.

Test system: dopamine release in the rat prefrontal cortex
Experiment: Microdialysis: dopamine release in prefrontal cortex after I.P. administration
Format: in vivo
Settings: 3 mg/kg IP, per animal R#15,16,21,22,27,28,09,10
Procedure: The aim of the study was to evaluate, using microdialysis, the effects of an intraperitoneal (I.P.) administration in rats of three different doses of SON-117 on dopamine and its metabolites, serotonin and its metabolite (5-HIAA), and norepinephrine levels in prefrontal cortex.
Thirty-two adult male Wistar rats were used for the whole study (4 groups of eight animals planned for the study, Table 1).
Surgery was performed on rats weighing about 300 g at the beginning of the experiments. Rats were anaesthetized with Ketamine (50 mg/kg) & Xylazine (15 mg/kg) by intramuscular administration. The animals were placed in a stereotaxic apparatus in the flat-skull position at a constant setting of −3.3 mm between ear bars and the incisor bar. The animals were treated with a local anesthesic (xylocaine 1%, Astra Zeneca) and an analgesic (Temgesic, from Schering Plough, 0.05 mg/kg, s.c.). A rostrocaudal midline incision was made with a lancet to expose the dorsal skull surface. The “stereotaxic zero” was defined by the Bregma in accordance with Paxinos and Watson's atlas (1986). A hole was drilled in the skull with a drill and the meninges were pierced with a sterile needle to implant a CMA12 guide cannula which later received the dialysis probe.
Coordinates used for implanting guide cannula in prefrontal cortex from Bregma were anteroposterior 3.7 mm, mediolateral 0.8 mm, and dorsoventral −2 mm (top of the probe was at −5 mm). The guide cannula was fixed to the skull with two stainless steel screws (1.88 mm outside diameter) anchored. An application of dental cement was added. A plastic collar allowed each animal to be tethered to a Swivel assembly of the CMA 120 awake animal system. Following surgery, rats were kept in individual cages and allowed to recover for a minimum of 3-5 days before the experimentation. The rats were handled and put in plastic bowl for 10 min at least every day to habituate the animals to their new environment for the dialysis. An I.P. administration with saline was also performed every day.
Dialysis probes (CMA12/3 mm, membrane, 20 kD cut-off, Carnegie Medicine, Stockholm, Sweden), were carefully washed before inserting into the guide cannula. The wash was performed with the artificial cerebrospinal fluid (aCSF) medium (NaCl 147 mM, KCl 2.7 mM, CaCl2 1.2 mM, MgCl2 0.85 mM) at room temperature. The dialysis system was then equilibrated at 20° C. at a perfusion rate of 1 μl/min with a Carnegie pump (CMA100). All catheters (FEP tubing, internal volume of 1.2 μl/10 cm, and tubing adaptors) used for microdialysis were treated in the same conditions.
The probes duly prepared were inserted into the guide cannula and the CMA120 Swivel assembly secured to the animal using a plastic collar. Flow through the dialysis probe with aCSF was maintained at a rate of 1 μl/min during the whole experimentation. The first four fractions (corresponding to 2 hours) were discarded to avoid the effects of parenchymal disturbance and to ensure that an approximate steady-state level was reached. Fractions were then collected over a period of 8.5 h during which time the animals remained quiet. The dialysates were automatically collected with an autosampler (microfraction collector CMA 140, Carnegie Medicin) and stored at −80° C. until analysis. […] Perfusion was then maintained for 7 hours with aCSF. The dialysates (30 μl) were collected into 300 μl vials, transferred into dry ice and then kept frozen (−80° C.) until analysis. Frozen samples were shipped to a partner for analysis. At the end of the microdialysis study, a PBS with colored ink was perfused through the probe in order to visualize the dialyzed area.
Catecholamine assay: Concentrations of dopamine, DOPAC, HVA, 5-HIAA, 5-HT, and norepinephrin were determined for each sample by HPLC coupled with electrochemical detection.

In the case of `Cc1nnc(-c2cc3c(OC[C@@H](O)CN4CCC(c5ccc(Cl)c(Cl)c5)CC4)cccc3o2)o1.Cl` [SON117], the “Dopamine release, individual animals” value (T0-T30 min) is reported as 74.36 % of respective basal and 99.14 % of respective basal and 268.40 % of respective basal and 124.48 % of respective basal and 110.89 % of respective basal and 106.79 % of respective basal and 176.72 % of respective basal and 74.98 % of respective basal, the “Dopamine release, individual animals” value (T30-T1 h) is reported as 134.73 % of respective basal and 105.04 % of respective basal and 142.58 % of respective basal and 173.21 % of respective basal and 86.78 % of respective basal and 108.67 % of respective basal and 69.20 % of respective basal and 64.11 % of respective basal and the “Dopamine release, individual animals” value (T1 h 30-T2 h) is reported as 360.72 % of respective basal and 138.09 % of respective basal and 162.59 % of respective basal and 58.59 % of respective basal and 46.35 % of respective basal and 84.07 % of respective basal and 85.41 % of respective basal and 138.23 % of respective basal. The “Dopamine release, individual animals” value (T1 h-T1 h 30) was 121.19 % of respective basal and 129.07 % of respective basal and 613.75 % of respective basal and 120.73 % of respective basal and 65.12 % of respective basal and 76.88 % of respective basal and 128.93 % of respective basal and 98.80 % of respective basal, the “Dopamine release, individual animals” value (T2 h 30-T3 h) was 186.56 % of respective basal and 135.32 % of respective basal and 135.75 % of respective basal and 91.01 % of respective basal and 39.85 % of respective basal and 120.81 % of respective basal and 98.27 % of respective basal and 113.76 % of respective basal and the “Dopamine release, individual animals” value (T2 h-T2 h 30) was 132.88 % of respective basal and 103.94 % of respective basal and 162.53 % of respective basal and 105.32 % of respective basal and 43.82 % of respective basal and 130.53 % of respective basal and 78.02 % of respective basal and 92.38 % of respective basal. For the same compound, the “Dopamine release, individual animals” value (T3 h 30-T4 h) was 184.88 % of respective basal and 118.94 % of respective basal and 114.14 % of respective basal and 109.07 % of respective basal and 50.59 % of respective basal and 99.12 % of respective basal and 91.85 % of respective basal and 135.55 % of respective basal, the “Dopamine release, individual animals” value (T3 h-T3 h 30) was 234.25 % of respective basal and 169.02 % of respective basal and 100.15 % of respective basal and 109.01 % of respective basal and 46.30 % of respective basal and 91.78 % of respective basal and 69.37 % of respective basal and 120.14 % of respective basal and the “Dopamine release, individual animals” value (T4 h 30-T5 h) was 242.69 % of respective basal and 66.02 % of respective basal and 127.97 % of respective basal and 87.34 % of respective basal and 70.60 % of respective basal and 62.20 % of respective basal and 123.12 % of respective basal. The “Dopamine release, individual animals” value (T4 h-T4 h 30) was 360.17 % of respective basal and 91.98 % of respective basal and 153.23 % of respective basal and 58.98 % of respective basal and 42.22 % of respective basal and 102.67 % of respective basal and 77.52 % of respective basal and 127.38 % of respective basal, the “Dopamine release, individual animals” value (T5 h 30-T6 h) was 286.57 % of respective basal and 92.91 % of respective basal and 189.03 % of respective basal and 84.11 % of respective basal and 52.74 % of respective basal and 89.24 % of respective basal and 164.66 % of respective basal and 225.94 % of respective basal and the “Dopamine release, individual animals” value (T5 h-T5 h 30) was 229.44 % of respective basal and 89.68 % of respective basal and 183.13 % of respective basal and 81.81 % of respective basal and 47.98 % of respective basal and 113.49 % of respective basal and 86.39 % of respective basal and 154.89 % of respective basal. The “Dopamine release, individual animals” value (T6 h 30-T7 h) was 342.88 % of respective basal and 100.85 % of respective basal and 315.87 % of respective basal and 147.30 % of respective basal and 56.17 % of respective basal and 99.06 % of respective basal and 154.36 % of respective basal and 122.94 % of respective basal, the “Dopamine release, individual animals” value (T6 h-T6 h 30) was 329.83 % of respective basal and 100.06 % of respective basal and 109.70 % of respective basal and 83.47 % of respective basal and 58.10 % of respective basal and 83.02 % of respective basal and 157.26 % of respective basal and the “Dopamine release, individual animals” value (T-30 min-T0 (before administration)) was 72.70 % of respective basal and 96.12 % of respective basal and 125.71 % of respective basal and 118.20 % of respective basal and 102.57 % of respective basal and 94.02 % of respective basal and 62.49 % of respective basal and 97.39 % of respective basal. The “Dopamine release, individual animals” value (T-1 h 30-T-1 h (before administration)) was 110.19 % of respective basal and 94.95 % of respective basal and 106.72 % of respective basal and 64.60 % of respective basal and 90.89 % of respective basal and 104.64 % of respective basal and 150.73 % of respective basal and 112.56 % of respective basal and the “Dopamine release, individual animals” value (T-1 h-T-30 min (before administration)) was 112.15 % of respective basal and 110.05 % of respective basal and 69.36 % of respective basal and 116.82 % of respective basal and 106.45 % of respective basal and 101.44 % of respective basal and 90.31 % of respective basal and 87.76 % of respective basal.
